Here are results for 62 molecules from PubChem BioAssay AID493014 (National Center for Advancing Translational Sciences (NCATS), 2011).

Each structure is given as a SMILES string. The list shows a part of the results. Shown are side measurements of this screen, not its main read-out; they come without a call. Compounds called inactive in the main read-out are mostly missing here. Words in brackets tell the shape of the fitted curve; partial curves, single points and poor fits give uncertain potencies.

A short description of the test: qHTS Assay to Find Inhibitors of Chronic Active B-Cell Receptor Signaling. To be noted: ABC-DLBCL IkBa-CBG/CBR reporter, luminescence ratio (green luciferase fused to IkBa over red control in TMD8 lymphoma cells), 4 h. The method in brief:
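TMD8 human ABC-DLBCL cells with doxycycline-inducible IκBα–green luciferase fusion and unfused red luciferase, in 0.5% FBS medium; compounds up to 46 uM, 4 h at 37C. Green/red luminescence ratio, filter-overlap corrected, fitted to concentration-response curves.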
In general terms: Quantitative high-throughput screening tests each substance at several concentrations.

Setting [1] is: measured here: CBR red luminescence, cell number.
[2] abbreviates: measured here: IkBa-CBG green luminescence.

Regarding `CCOC(=O)Cc1cnc(NC(=O)CSc2nc(C)c(CC)c(=O)[nH]2)s1`, the AC50 under setting [1] was 11.2 µM [falling, partial curve, poor fit]. Turning to `NC(=O)[C@H]1CC2(CC(c3cccc(NC(=O)[C@H]4CCC(=O)N4)c3)=NO2)CN1C(=O)c1cc([N+](=O)[O-])cc([N+](=O)[O-])c1` (some centres not stated), the AC50 under setting [1] is 6.31 µM [falling, single point]. `CC(Sc1nnnn1-c1ccccc1)C(=O)Nc1ccc(Cl)cn1` (configuration not stated): under setting [2], the AC50 is 4.61 µM [rising, partial curve, poor fit]. Consider `Cc1ccc(C(NC(=O)N2CCCC2)C(Cl)(Cl)Cl)cc1F` (configuration not stated), for which the AC50 under setting [1] is 11.2 µM [rising, partial curve, poor fit]. As for `NC(=O)c1cc2ccccc2oc1=NCc1ccccc1`, the AC50 under setting [1] was 14.1 µM [falling, single point]. For `CCCCN(Cc1ccccc1)S(=O)(=O)c1ccc2[nH]c(=O)oc2c1`, the AC50 under setting [1] was 20 µM [falling, partial curve, poor fit].

Regarding `O=C(O)c1cc([N+](=O)[O-])ccc1NCCc1ccccc1`, the AC50 under setting [1] is 11.2 µM [falling, partial curve, poor fit]. With `Cc1oc(C(N)=O)cc1COc1ccc(C(N)=O)cc1`, the AC50 under setting [1] is 35.5 µM [rising, single point]. Consider `Cc1cc(C)c2cc(C=O)c(Cl)nc2c1`, for which the AC50 under setting [1] is 10 µM [rising, partial curve] and the AC50 under setting [2] was 3.55 µM [falling, full curve]. As to `COc1ccc(N(Cc2cc(=O)[nH]c3ccccc23)C(=O)c2ccco2)cc1`, the AC50 under setting [1] was 20 µM [falling, single point]. As to `N#Cc1cc2cc3c(cc2nc1NCCNC(=S)NCCCN1CCOCC1)OCO3`, under setting [1], the AC50 is 7.94 µM [falling, single point]. In the case of `O=C1c2ccccc2C(=O)N1CCSc1ccccc1`, the AC50 under setting [1] is 1.16 µM [rising, full curve, poor fit]. In the case of `CCOc1cc(CNc2ccc(N3CCCCC3)cc2)cc(Br)c1OCC(=O)NC(C)(C)C`, the AC50 under setting [1] is 18.4 µM [falling, partial curve] and the AC50 under setting [2] was 32.6 µM [rising, partial curve, poor fit]. Turning to `Cc1onc(-c2ccccc2)c1C(=O)Nc1ncc([N+](=O)[O-])s1`, the AC50 under setting [1] is 11.2 µM [falling, single point]. In the case of `CCCc1[nH]nc2c1C(c1ccccc1OC)C(C#N)=C(N)O2` (configuration not stated), the AC50 under setting [1] was 10 µM [falling, partial curve, poor fit]. For `Cc1ccc(S(=O)(=O)N2CCN(S(=O)(=O)c3c(C)n[nH]c3C)CC2)cc1C`, the concentration at half-maximal activity (AC50) under setting [1] is 3.66 µM [rising, partial curve, poor fit]. As to `COc1ccc(NC2CCCN(C(=O)c3cccc(N4CCNC4=O)c3)C2)cc1` (configuration not stated), the half-maximal activity concentration (AC50) under setting [1] was 8.91 µM [rising, partial curve, poor fit]. Consider `Cc1cc(C)nc(N/N=C/c2ccccc2OCc2ccc(Cl)cc2)n1`, for which, under setting [1], the AC50 was 1.84 µM [rising, partial curve]. On the same count and under the same terms, under `O=C(Cn1cc2c(n1)CCCC2)Nc1cc(-c2cccc(Cl)c2)no1` stands 6.51 µM [rising, partial curve, poor fit]. Still for that read-out and setting: under `O=C(CSc1nnc(-c2ccccc2)c(-c2ccccc2)n1)NCCc1ccccc1` stands 15.8 µM [falling, single point]; under `Cc1ncoc1C(=O)NC1CCCc2c1cnn2-c1ccc(C(C)(C)C)cc1` (configuration not stated), 25.1 µM [falling, single point]. As to `COc1ccc(-c2noc(CCC(=O)N3CCN(c4ccccc4Cl)CC3)n2)cc1`, the AC50 reads like this: under setting [1], 7.31 µM [rising, partial curve, poor fit]; under setting [2], 8.2 µM [falling, partial curve, poor fit]. In the case of `COc1ccccc1NC(=O)Nc1nnc(CC(=O)Nc2ccccc2)s1`, the AC50 under setting [1] was 3.16 µM [falling, full curve].

Consider `Cc1ccc(C(=O)N2CCN3C(=O)c4ccccc4C23c2ccccc2)cc1` (configuration not stated), for which the AC50 under setting [1] was 7.94 µM [falling, partial curve]. Take `COc1ccc(C)cc1NC(=S)N1CC(C)OC(C)C1` (configuration not stated): under setting [1], the concentration at half-maximal activity (AC50) is 7.08 µM [rising, partial curve, poor fit]. Consider `Cc1ccc(S(=O)(=O)Nc2ccc3c(c2)n(C)c(=O)n3C)c(C)c1`, for which the AC50 under setting [1] is 25.1 µM [rising, single point].

For the molecule `O=C(NC(=S)Nn1cnnc1)c1cccc(Br)c1`, the AC50 under setting [1] is 6.51 µM [rising, single point].

Turning to `O=C(/C=C/Nc1ccc(Br)cc1F)c1ccco1`, under setting [1], the AC50 is 10 µM [falling, single point].

`COc1ccc(CCNC(=O)CSc2nnnn2C)cc1OC`: the AC50 under setting [1] was 25.1 µM [rising, single point]. With `O=C(Nc1nc2ccccc2c(=O)s1)c1ccco1`, the AC50 under setting [1] is 20 µM [falling, single point]. In the case of `CN(CC(=O)Nc1ccncc1)S(=O)(=O)c1ccccc1`, the AC50 under setting [1] was 6.51 µM [rising, single point]. As for `CC(=O)C1=C(O)C(=O)N(c2ccc(C)cc2)C1c1ccccn1` (configuration not stated), the AC50 under setting [1] is 29.1 µM [rising, single point]. Take `O=C(OCc1cc(=O)n2ccsc2n1)c1ccc(O)cc1O`: under setting [1], the AC50 was 0.517 µM [rising, full curve]. Regarding `Cn1c(=O)c(C(=O)NNC(=O)c2ccccc2F)c(O)c2ccccc21`, the AC50 under setting [1] is 1.12 µM [falling, full curve, poor fit].

Consider `CN1CCN(C(=S)NC(=O)/C=C/c2cccs2)CC1`, for which the AC50 under setting [1] was 0.501 µM [rising, full curve, poor fit]. Consider `Cc1ccc2c(c1)N(CC(=O)N1CCC(C)CC1)C(=O)c1cccnc1O2`, for which the half-maximal activity concentration (AC50) under setting [1] was 15.8 µM [rising, single point]. On the same count and under the same terms, in the case of `C=CC[C@H](CC(=O)N(CCO)Cc1ccccc1)C(=O)N[C@H](COC(=O)[C@@H](CC=C)Cc1ccc(F)cc1)Cc1c[nH]c2ccccc12` it was 29.1 µM [falling, single point].

On to `C=C(C)CSc1nc2nc(C)c(Br)cc2[nH]1`, for which the half-maximal activity concentration (AC50) under setting [1] was 16.4 µM [falling, single point].

Regarding `COC(CNC(=O)c1ccc2c(c1)ncn2-c1cccc(C)c1)OC`, the half-maximal activity concentration (AC50) under setting [1] was 0.112 µM [rising, full curve, poor fit]. Regarding `O=C1NC2(C=Cc3c(ccc4ccccc34)O2)Oc2ccccc21` (configuration not stated), the AC50 under setting [1] was 4.47 µM [rising, partial curve, poor fit].

With `CCn1c2ccccc2c2cc(NC(=O)c3cc(OC)cc(OC)c3)ccc21`, the AC50 reads like this: under setting [1], 3.26 µM [rising, full curve, poor fit]; under setting [2], 3.26 µM [falling, full curve]. On to `Cc1nn(Cc2ccc(C(=O)NN)o2)c(C)c1Cl`, for which the AC50 under setting [1] was 10 µM [falling, partial curve]. The same measure, in the same setting: under `CC(c1ccccc1)N1CCC(CNC(=S)Nc2cccc(Cl)c2)C1` (configuration not stated) stands 20 µM [falling, single point]; under `O=C(CSc1nnc(Cc2ccccc2)n1Cc1ccco1)NC1CCCC1`, 5.62 µM [rising, single point]; under `Cc1cc(Cl)ccc1NC(=S)Nc1ccccn1`, 7.31 µM [rising, full curve]. For the molecule `O=C(N/N=C/C=C/c1ccccc1)c1n[nH]c2c1CCC2`, the half-maximal activity concentration (AC50) under setting [1] was 29.1 µM [falling, single point]. Consider `O=C(O)c1cccc(Cn2c(Cl)c(/C=N/NC(=O)c3cccc(O)c3)sc2=O)c1`, for which the AC50 under setting [1] was 0.501 µM [falling, partial curve, poor fit]. Consider `CSc1nc2ccc(S(=O)(=O)N3CCCCC3)cc2s1`, for which the AC50 under setting [1] is 6.51 µM [rising, full curve, poor fit].

For the molecule `COc1cccc(OCc2cc(C(=O)N3CCN(c4ccccc4O)CC3)no2)c1`, the AC50 under setting [1] was 17.8 µM [falling, single point]. For the molecule `Clc1ccc(-c2nnc3sc(-c4ccc(Br)o4)nn23)cc1`, under setting [1], the AC50 was 13 µM [falling, partial curve, poor fit]. Consider `CCc1ccc(OCCCC(=O)Nc2ccc(S(N)(=O)=O)cc2)cc1`, for which the AC50 under setting [1] was 35.5 µM [rising, partial curve, poor fit]. Turning to `CC(=O)NS(=O)(=O)c1ccc(N=c2ssc3c2-c2cc(C)ccc2NC3(C)C)cc1`, the AC50 under setting [1] was 16.4 µM [falling, partial curve, poor fit] and the half-maximal activity concentration (AC50) under setting [2] was 20.6 µM [rising, partial curve, poor fit].

As to `CN1CCN(CCCNC(=O)c2ccc(Cn3c(=S)[nH]c4ccc(Br)cc4c3=O)cc2)CC1`, the AC50 under setting [1] is 0.178 µM [falling, full curve, poor fit].

On to `Cc1ccc(C(=O)O/N=C2\CCSc3ccc(C)cc32)cc1`, for which the AC50 under setting [1] was 8.2 µM [rising, partial curve, poor fit]. For `CCCSc1cc(N)cc([N+](=O)[O-])c1`, under setting [1], the AC50 is 0.501 µM [rising, full curve, poor fit].

Regarding `O=C(CSc1nc(=O)n(CCN2CCOCC2)c2c1CCC2)Nc1ccc(OC(F)(F)F)cc1`, the half-maximal activity concentration (AC50) under setting [1] is 6.51 µM [falling, full curve, poor fit]. `Cc1ccccc1C(=O)Nc1ccccc1C(=O)NCC(C)C`: under setting [1], the half-maximal activity concentration (AC50) was 12.6 µM [falling, partial curve, poor fit]. For the molecule `Cc1ccc2nc(NC(=O)CCNS(=O)(=O)c3cccs3)sc2c1`, the AC50 under setting [1] is 3.98 µM [falling, partial curve, poor fit]. For the molecule `CCN1CCN(c2cc(C)c3cc(NC(=S)N(C)Cc4ccccc4)ccc3n2)CC1`, under setting [1], the AC50 was 35.5 µM [falling, single point]. As for `CC(=O)Nc1ccc(OCC=C(Cl)Cl)cc1`, the AC50 under setting [1] is 4.61 µM [rising, full curve, poor fit].

Take `COc1ccc(N2C(=O)C(F)(F)C2c2ccccc2F)cc1` (configuration not stated): the AC50 under setting [1] is 35.5 µM [falling, single point].

As for `COc1ccc(-c2cc(-c3ccccc3O)[nH]n2)cc1OC`, under setting [1], the concentration at half-maximal activity (AC50) was 10 µM [falling, partial curve].

The AC50 is the concentration at which the activity in the assay is half-maximal.
